The results in this text go back to publication PMC12931196, “Vm–MSI: a Vancomycin–Antimicrobial Peptide Conjugate Combating Resistant Bacteria and Broadening the Antimicrobial Spectrum” (Advanced Science, 2025).

The subject of the experiment is VRSA 52. Nature of the experiment: Mouse skin infection model. It counts as in vivo, BALB/c mice. The following applies: topical 2 mg kg^−1 ×3; observed to day 12.

As to `O=C(O)c1cn(C2CC2)c2cc(N3CCNCC3)c(F)cc2c1=O` [ciprofloxacin], the skin wound healing entry was “completely healed by 12 days post‐infection”.
